# Assay: AOX (adsorbable organic halides) of ethylenically unsaturated monomers, DIN EN ISO 9562
# Conditions: monomer sample at solid content listed in table 1; DIN EN ISO 9562 (6.2.1); back-calculated to undiluted sample if diluted
row,Structure (SMILES),AOX
1,"C=CC(=O)OCC(O)COCCCCOCC(O)COC(=O)C=C (centres unmarked) [BHPD, 1,4-butanediylbis[oxy(2-hydroxy-3,1-propanediyl)] diacrylate, reference compound]",2600 mg/L
2,"C=CC(=O)OCC(O)COc1ccccc1 (centres unmarked) [HPPE, 2-hydroxy-3-phenoxypropyl prop-2-enoate, reference compound]",4600 mg/L
3,"C=C(C)C(=O)NCCC[N+](C)(C)C [MAPTAC, Methacrylamidopropyltrimethylammonium chloride]",<10 mg/L
4,"C=CC(=O)NC(C)S(=O)(=O)[O-].[Na+] (centres unmarked) [Na-AMPS, sodium salt of 2-acrylamido-2-methylpropane sulfonic acid]",<10 mg/L
5,"C=C(C)C(=O)OCC[N+](C)(C)C.[Cl-] [TMAEMC, 2-Trimethylammonium ethyl methacrylate chloride]",<50 mg/L
